## Screening data, single-dose tests

By UniProt entry, the sequences of proteins in these tests, tags left out. Residues count along the entry.
UniProt Q8IDJ8, 1-583: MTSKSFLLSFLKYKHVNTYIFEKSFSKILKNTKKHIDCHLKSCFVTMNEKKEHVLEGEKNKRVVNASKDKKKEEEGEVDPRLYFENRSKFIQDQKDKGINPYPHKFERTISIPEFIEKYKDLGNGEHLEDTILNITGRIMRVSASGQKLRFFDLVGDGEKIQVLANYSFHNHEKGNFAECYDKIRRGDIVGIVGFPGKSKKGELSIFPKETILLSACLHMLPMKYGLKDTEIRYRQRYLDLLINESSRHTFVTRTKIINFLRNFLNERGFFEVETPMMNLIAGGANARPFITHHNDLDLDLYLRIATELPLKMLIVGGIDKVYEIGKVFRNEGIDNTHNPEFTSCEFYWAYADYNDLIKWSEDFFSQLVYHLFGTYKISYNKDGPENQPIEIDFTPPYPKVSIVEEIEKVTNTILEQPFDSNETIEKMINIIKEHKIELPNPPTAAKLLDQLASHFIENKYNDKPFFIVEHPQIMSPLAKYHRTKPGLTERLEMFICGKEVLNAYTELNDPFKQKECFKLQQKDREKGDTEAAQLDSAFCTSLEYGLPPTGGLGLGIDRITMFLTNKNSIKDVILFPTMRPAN
UniProt P9WFT3, whole entry: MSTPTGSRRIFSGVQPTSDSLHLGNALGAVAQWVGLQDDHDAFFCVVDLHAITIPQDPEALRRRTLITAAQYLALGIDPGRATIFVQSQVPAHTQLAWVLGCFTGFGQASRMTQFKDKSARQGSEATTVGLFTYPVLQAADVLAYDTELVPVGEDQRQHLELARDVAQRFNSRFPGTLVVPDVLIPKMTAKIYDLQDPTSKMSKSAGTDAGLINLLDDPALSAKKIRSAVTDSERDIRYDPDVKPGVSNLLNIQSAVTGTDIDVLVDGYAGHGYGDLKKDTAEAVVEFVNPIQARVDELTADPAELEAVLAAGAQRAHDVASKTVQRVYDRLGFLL

Measurements from “University of Dundee, Small-Polar-MMV Screening Library” (2021), ChEMBL document CHEMBL3988442.

The filed quantity is “Percent Effect” (%). The record does not define 0% and 100%; most values in the screen are far below 50% and negative numbers occur (in some assays of this library far below -100). Compounds were drawn at random from those tested, without regard to their results. A dash means the value is not listed here; it may have been measured.

A: 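Lysine-tRNA ligase, Plasmodium falciparum 3D7 (UniProt Q8IDJ8). Enzyme assay of the cytosolic lysyl-tRNA synthetase in 384-well plates, read by luminescence. Concentration: 30 µM. Direction is inferred from only a few compounds that gave an IC50; most scored high, so higher reads as stronger inhibition. Size under these conditions: about 69,000 compounds, about 49 of them at 50% or above in at least one test.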
B: 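Tryptophan-tRNA ligase, Mycobacterium tuberculosis (UniProt P9WFT3). Enzyme assay of tryptophanyl-tRNA synthetase; the read-out is not stated. Concentration: 10 µM. Direction is not recorded; retested compounds ran higher, which suggests that high means inhibition. About 65,000 compounds were tested under these conditions; 0.098% (about 64) showed 50% or more at least once.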

| compound | A | B |
|---|---|---|
| `COc1ccc(-c2nc(CSC3CCCCNC3=O)co2)cc1` (configuration not stated) | 3.077% | -13.42% |
| `O=C(c1nc(=O)[nH][nH]1)N1CCCN(CC2CCCCC2)CC1` | 4.067% | -4.897% |
| `CC(C)CO[C@H]1CN(S(=O)(=O)c2cn(C)cn2)[C@@H]2CCCO[C@H]12` | -0.2072% | -3.091% |
| `O=C(CCN1CCc2c(ncn2C2CC2)C1)NC1CCCC1` | 0.8173% | -2.555% |
| `N#Cc1ccc(CNC(=O)NC2CCCN(c3ncccn3)C2)cc1` (configuration not stated) | 4.638% | -1.319% |
| `CCC1(CC)Cc2ccccc2-c2nc(CN(C)C)nc(O)c21` | 8.717% | -3.496% |
| `Nc1nnc(SCC(=O)NCC(O)c2ccccc2)s1` (configuration not stated) | -0.6994% | 1.469% |
| `CCCNC(=O)c1sc(Nc2ccc(Cl)cn2)nc1C` | 1.621% | -0.804% |
| `CC(C)c1nnc2n1CC(CNCc1ccncc1)CC2` (configuration not stated) | 0.8795% | -3.981% |
| `CC(=O)c1ccc(C(=O)N2CCCCC2c2nc[nH]n2)cc1` (configuration not stated) | -2.23% | -5.812% |
| `O=C(O)COc1ccc(Cl)cc1CN1CCC2(CCOCC2)CC1` | 1.576% | 0.5045% |
| `COc1cccc(CCC2CCCN(C(=O)c3ccccn3)C2)c1` (configuration not stated) | -4.014% | -4.214% |
| `Cc1ccc(C(=O)N2CC[C@@H]3CN(C4CCOCC4)CCO[C@@H]3C2)o1` | 3.287% | - |
| `O=S(=O)(C1CC1)N1CCC(Cn2cccn2)CC1` | 8.062% | -3.259% |
| `O=C(NC[C@]12COC[C@H]1CN(Cc1nccs1)C2)c1ccsc1` | -2.773% | -0.5533% |
| `CC(NC(=O)CN(C)S(C)(=O)=O)c1ccc(F)cc1` (configuration not stated) | 6.381% | 0.6606% |
| `COCC(=O)N1CCCC2(CCN(Cc3cccc(C)n3)C2=O)C1` (configuration not stated) | 0.3804% | -2.948% |
| `CCc1cc(CNC(=O)N(C2CC2)C(C)c2ccco2)[nH]n1` (configuration not stated) | 4.046% | -4.04% |
| `Cc1nc(CCNC(=O)NC2CCN(c3ncccn3)CC2)cs1` | 6.094% | 2.714% |
| `CN(CC(=O)NCCC#N)C(c1ccccc1)c1ccc(F)cc1` (configuration not stated) | 5.205% | -1.144% |
| `Cc1ccc(C(=O)N2C[C@@H]3OCCN(C(C)C)[C@@H]3C2)cn1` | 9.417% | -1.604% |
| `CC(C)C(=O)N1CCC2(CC1)[C@@H]1CN(C(=O)N(C)C)C[C@@H]1C(=O)N2C` | 6.493% | 1.698% |
| `CCNC(=O)c1ccc(NC2CCOC3(CCCC3)C2)nn1` (configuration not stated) | -2.84% | 4.192% |
| `O=C(O)C1(Cc2ccccc2F)CCCN(c2ncnc3[nH]ccc23)C1` (configuration not stated) | 5.016% | 2.318% |
| `NC(=O)c1cccc(CC2CCN(C(=O)CCCN3CCOCC3)C2)c1` (configuration not stated) | 3.049% | -3.778% |
| `CN(Cc1cccc(OC(F)(F)F)c1)Cc1cnn(C)c1` | 2.214% | -1.125% |
| `Cc1ccc(C2CCCN2S(=O)(=O)N(C)Cc2cnccn2)o1` (configuration not stated) | 0% | 0.06536% |
| `CCCNC(=O)CN1CCC(NCc2c(C)nn(C)c2OC)CC1` | 7.638% | -3.888% |
| `CCn1nc(C)cc1C(=O)NCc1cc(N(C)C)nc2ccccc12` | 1.42% | -1.643% |
| `CCN1CCC(CNC(=O)C2(c3ccc(F)cc3)CC2)C1` (configuration not stated) | -6.155% | 32.46% |
| `CCC(=O)NCc1ccccc1Cn1ccnc1` | 7.107% | -6.813% |
| `O=C1CCOC[C@]2(CN(Cc3ccccc3)C[C@H]2c2ccccc2)N1` | -0.6552% | 15.84% |
| `O[C@H]1CN(Cc2cc3ccccc3o2)CC[C@@]12CCCO2` | 0.8965% | -5.333% |
| `CC(C)=CCN1CCN(Cc2cc(C)c(O)c(C)c2)CC1CCO` (configuration not stated) | -2.386% | 1.986% |
| `Cc1noc(C(C)C)c1C(=O)NCc1cccc(N(C)C)c1` | -5.136% | 0.8793% |
| `Cc1cc(C(=O)N2CCCC(c3nccn3C)C2)cc(S(N)(=O)=O)c1C` (configuration not stated) | 1.291% | 8.516% |
| `NC(=O)c1ccc(OCC(=O)N2CCCC2c2ccc[nH]2)cc1` (configuration not stated) | -0.7733% | 2.821% |
| `Cc1ccccc1-n1cc(CN(C)C[C@@H]2CCCN3CCCC[C@H]23)cn1` | 4.339% | -0.07262% |
| `COc1ccc(C(N)c2cccc(S(C)(=O)=O)c2)cc1` (configuration not stated) | 3.912% | -3.632% |
| `Cc1ncsc1C(=O)N(C)Cc1ccsc1` | 0.988% | -0.6905% |
| `COc1ccc(C2CC(=O)Nc3nc(N4CCOCC4)sc32)cc1` (configuration not stated) | 82.19% | 8.542% |
| `Cc1c(C(=O)NC2(C#N)CCCC2)nnn1-c1ccccc1Cl` | 8.479% | -4.46% |
| `CCn1cnnc1CNC(=O)NC(c1ccc(OC)cc1)C1CC1` (configuration not stated) | 4.754% | -5.348% |
| `c1ccc(N2CCC(NCc3cccc4cn[nH]c34)C2)cc1` (configuration not stated) | 0.9016% | -0.4776% |
| `COCC(=O)N1CCCC(C(=O)NCc2cc(CC(C)C)on2)C1` (configuration not stated) | 2.098% | 2.755% |
| `O=c1ccc2c([nH]1)CCC(NS(=O)(=O)C1CC1)C2` (configuration not stated) | 4.865% | - |
| `c1ccc(-c2cc(CN3C[C@H]4CC[C@H]3C4)on2)cc1` | 6.792% | -4.839% |
| `COc1c(CNCc2ccc(C(=O)N3CCCC3)cc2)c(C)nn1C` | 0.06699% | 1.988% |
| `Cc1c(C(=O)NCC(C)C)nnn1-c1cccc2c1CCN(CCO)C2` | 4.872% | 2.1% |
| `Cc1cc(-n2cncn2)ccc1C(=O)N(C)CC(F)(F)C(F)(F)F` | 7.919% | -0.8475% |
| `CCC[C@H]1CN(S(C)(=O)=O)C[C@@H]1NC(=O)COC(C)C` | 4.144% | 0.9009% |
| `CCCc1ccc(S(=O)(=O)Nc2ccc(=O)n(C)c2)cc1` | 0.3032% | -7.733% |
| `Cn1ccnc1COc1ccc(CSc2nncn2C2CC2)cc1` | 6.356% | -3.211% |
| `c1ccc(Cn2cc(CNc3ncnc4c3CCNCC4)cn2)cc1` | -1.876% | 3.948% |
| `CC1(C)Cc2nc(C(C)(C)C)ncc2C(NC(=O)C2(N)CC2)C1` (configuration not stated) | -4.005% | 7.651% |
| `COc1ccccc1CNC(Cc1cccs1)c1nc(C)c(C)s1` (configuration not stated) | 1.728% | -4.116% |
| `Cc1cc(CN2C[C@@H](C)[C@@]3(CCN(CC(=O)N(C)C)C3=O)C2)oc1C` | 8.69% | 2.697% |
| `O=C1N(c2ccc(F)cc2)Cc2nc(=O)n(Cc3cccc(Cl)c3)n21` | 3.813% | 3.618% |
| `COCc1ccc(C(=O)N2CCOCC2c2ccc(C)o2)cc1` (configuration not stated) | 2.493% | 1.521% |
| `Cc1noc(C)c1CN1CC[C@H]2OCC[C@@]2(C(=O)N2CCCO2)C1` | 12.18% | -0.4794% |
| `CC(NC1CCN(CCc2ccncc2)CC1)c1cnn(C(C)C)c1` (configuration not stated) | 1.377% | -3.943% |
| `COCC(=O)N1CC(c2ccnc(Nc3ccc(C)cn3)n2)C1` | 2.143% | -0.2899% |
| `CC(C#N)CN(C)C(=O)CCNC(=O)C(C)(C)C` (configuration not stated) | 3.004% | 4.112% |
| `CC(C)CC(CO)NC(=O)NCc1csc(N(C)C)n1` (configuration not stated) | 2.611% | -3.387% |
| `O=c1[nH]c(-c2ccncc2)ncc1-c1ccnc(NC2CC2)n1` | -0.1011% | - |

The first 8 entries again:

{"compound": "COc1ccc(-c2nc(CSC3CCCCNC3=O)co2)cc1", "stereo": "configuration not stated", "A": 3.077, "B": -13.42}
{"compound": "O=C(c1nc(=O)[nH][nH]1)N1CCCN(CC2CCCCC2)CC1", "A": 4.067, "B": -4.897}
{"compound": "CC(C)CO[C@H]1CN(S(=O)(=O)c2cn(C)cn2)[C@@H]2CCCO[C@H]12", "A": -0.2072, "B": -3.091}
{"compound": "O=C(CCN1CCc2c(ncn2C2CC2)C1)NC1CCCC1", "A": 0.8173, "B": -2.555}
{"compound": "N#Cc1ccc(CNC(=O)NC2CCCN(c3ncccn3)C2)cc1", "stereo": "configuration not stated", "A": 4.638, "B": -1.319}
{"compound": "CCC1(CC)Cc2ccccc2-c2nc(CN(C)C)nc(O)c21", "A": 8.717, "B": -3.496}
{"compound": "Nc1nnc(SCC(=O)NCC(O)c2ccccc2)s1", "stereo": "configuration not stated", "A": -0.6994, "B": 1.469}
{"compound": "CCCNC(=O)c1sc(Nc2ccc(Cl)cn2)nc1C", "A": 1.621, "B": -0.804}